Cleaved PARP after 72 h of treatment

Values as published with doi:10.1371/journal.pone.0140310, rounded.

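The test systems are human melanoma cell lines, treated with two drugs together for 72 h and then stained and imaged. Each value is the cleaved-PARP-positive fraction of nuclei relative to DMSO-treated wells, in %, so that 100 equals the control and higher values mean more apoptosis. Concentrations were fixed for each drug; these are the higher of two levels. No replicate spread is given; individual values may be noisy. Basal and induced levels differ widely between cell lines.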 Only some of the drugs and lines screened are listed, without regard to their results. An entry leaves out what has no value listed here. A dash means that no value is listed here.

Drugs:
GW441756: Cn1cc(/C=C2\C(=O)Nc3cccnc32)c2ccccc21 at 2 µM
ruxolitinib: N#CC[C@H](C1CCCC1)n1cc(-c2ncnc3[nH]ccc23)cn1 at 5 µM
etoposide: COc1cc([C@@H]2c3cc4c(cc3[C@@H](O[C@@H]3O[C@@H]5CO[C@@H](C)O[C@H]5[C@H](O)[C@H]3O)[C@H]3COC(=O)[C@H]23)OCO4)cc(OC)c1O at 0.1 µM
tanespimycin: C=CCNC1=C2C[C@@H](C)C[C@H](OC)[C@H](O)[C@@H](C)/C=C(\C)[C@H](OC(N)=O)[C@@H](OC)/C=C\C=C(/C)C(=O)NC(=CC1=O)C2=O at 0.01 µM
PF-562271: CN(c1ncccc1CNc1nc(Nc2ccc3c(c2)CC(=O)N3)ncc1C(F)(F)F)S(C)(=O)=O at 0.4 µM
fludarabine: Nc1nc(F)nc2c1ncn2[C@@H]1O[C@H](CO)[C@@H](O)[C@@H]1O at 1 µM
BI-78D3: O=c1[nH]nc(Sc2ncc([N+](=O)[O-])s2)n1-c1ccc2c(c1)OCCO2 at 1 µM
GW9662: O=C(Nc1ccccc1)c1cc([N+](=O)[O-])ccc1Cl at 10 µM

Drugs,A101D,UACC-257,SK-MEL-5,WM1745,WM3619,COLO 829,501mel,MEL-HO
fludarabine + tanespimycin,80.7,6640,1410,117,216,171,-,110
PF-562271 + GW9662,175,113,19.8,-,123,129,74.2,83.8
GW441756 + tanespimycin,94.6,42.8,143,-,222,121,113,193
fludarabine + BI-78D3,92.3,8120,3560,114,113,27.7,-,66.3
etoposide + fludarabine,77.4,3450,1360,118,135,292,-,93.3
PF-562271 + BI-78D3,96.7,47.6,200,141,118,100,-,57.0
GW9662 + ruxolitinib,85.0,178,61.1,-,156,133,101,115
PF-562271 + GW441756,131,39.8,286,-,135,82.0,42.8,44.7
tanespimycin + ruxolitinib,176,42.8,109,259,82.1,141,-,199
tanespimycin + PF-562271,474,91.4,174,225,148,28.4,-,26.8
etoposide + tanespimycin,97.8,21.3,159,170,175,75.2,-,87.2
PF-562271 + fludarabine,140,1710,770,178,109,84.0,-,130
fludarabine + GW441756,85.7,1540,1100,-,110,43.7,2810,125
GW9662 + BI-78D3,282,51.1,137,-,286,156,925,104
etoposide + GW9662,86.3,83.9,291,-,231,304,180,192
ruxolitinib + BI-78D3,157,111,189,122,105,76.2,-,94.6
BI-78D3 + GW441756,182,20.0,102,-,121,116,153,164
tanespimycin + GW9662,142,137,195,-,186,216,162,51.1
PF-562271 + etoposide,40.6,50.4,190,118,161,57.3,-,61.0
ruxolitinib + GW441756,42.1,27.2,135,-,83.9,70.0,75.9,92.2
PF-562271 + ruxolitinib,58.7,350,237,157,119,268,-,52.0
etoposide + ruxolitinib,41.2,71.9,108,129,179,102,-,178

The first 3 entries again:

{"drugs": "fludarabine + tanespimycin", "A101D": 80.7, "UACC-257": 6640, "SK-MEL-5": 1410, "WM1745": 117, "WM3619": 216, "COLO 829": 171, "MEL-HO": 110}
{"drugs": "PF-562271 + GW9662", "A101D": 175, "UACC-257": 113, "SK-MEL-5": 19.8, "WM3619": 123, "COLO 829": 129, "501mel": 74.2, "MEL-HO": 83.8}
{"drugs": "GW441756 + tanespimycin", "A101D": 94.6, "UACC-257": 42.8, "SK-MEL-5": 143, "WM3619": 222, "COLO 829": 121, "501mel": 113, "MEL-HO": 193}